Measurements as given in the supplement of paper PMC7877785.
± gives the uncertainty stated by the source. Many entries were measured with a wide error.

Assay: self-splicing fitness, log relative to wild type (ln ratio); higher = more splicing; Tetrahymena group I intron in knt gene, E. coli kanamycin selection, DiMSum; sequences stand for … in CUCUCU…GGAGGGAAAAGUUAUCAGGCAUGCACCUGGUAGCUAGUCUUUAAACCAAUAGAUUGCAUCGGUUUAAAAGGCAAGACCGUCAAAUUGCGGGAAAGGGGUCAACAGCCGUUCAGUACCAAGUCUCAGGGGAAACUUUGAGAUGGCCUUGCAAAGGGUAUGGUAAUAAGCUGACGGACAUGGUCCUAACCACGCAGCCAAGUCCUAAGUCAACAGAUCUUCUGUUGAUAUGGAUGCAGUUCACAGACUAAAUGUCGGUCGGGGAAGAUGUAUUCUUCUCAUAAGAUAUAGUCGGACCUCUCCUUAAUGGGAGCUAGCGGAUGAAGUGAUGCAACACUGGAGCCGCUGGGAACUAAUUUGUAUGCGAAAGUAUAUUGAUUAGUUUUGGAGUACUCGUGGUCG
Procedure, shortened: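 Fitness was computed with DiMSum as the error-weighted combination of replicate fold changes, kanamycin versus none, each normalised to wild type. The library randomised all eight intron nucleotides of the P1ex region, with the intron placed in the knt kanamycin-resistance gene on pET-22b(+) in E. coli BL21(DE3). Six replicate transformations were grown overnight at 37°C or 30°C on LB agar with or without 25 μg/mL kanamycin, plus 100 μg/mL carbenicillin, 50 μM IPTG and 0.2% rhamnose. Pooled colonies were amplicon-sequenced on an Illumina HiSeq 2500.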

Row | Sequence | self-splicing fitness (ln) (30 °C) | self-splicing fitness (ln) (37 °C)
1 | GGGGAGCAAUAUUACGCCCG | -1.97 ± 1.2 | -1.13 ± 1.2
2 | UUGCAGCAAUAUUACGAGAC | -3.87 ± 0.59 | 
3 | UACGAGCAAUAUUACGGGCU | -4.87 ± 0.72 | 
4 | CAGUAGCAAUAUUACGGUCC | -4.04 ± 1.1 | -2.63 ± 0.76
5 | CAACAGCAAUAUUACGUAUU | -3.48 ± 0.17 | -1.58 ± 0.11
6 | AUCCAGCAAUAUUACGUAGG | -2.91 ± 0.14 | -1.49 ± 0.12
7 | CGCGAGCAAUAUUACGCCUU |  | -4.64 ± 0.59
8 | AUGCAGCAAUAUUACGAAAA | -3.33 ± 0.77 | 
9 | CGUUAGCAAUAUUACGUCAC | -2.67 ± 0.55 | 0.859 ± 0.64
10 | UUAUAGCAAUAUUACGUUAU | -3.9 ± 1 | 
11 | UCAGAGCAAUAUUACGAAUU | -3.03 ± 0.54 | 
12 | CCAAAGCAAUAUUACGGACC | -6.08 ± 1 | 
13 | CUACAGCAAUAUUACGCCAC |  | -2.47 ± 1.1
14 | GUAGAGCAAUAUUACGCACU | -1.24 ± 0.25 | 0.332 ± 0.23
15 | GGGGAGCAAUAUUACGCAGC | -1.52 ± 1.2 | -0.557 ± 0.56
16 | UGUGAGCAAUAUUACGAUCU | -1.57 ± 0.15 | -0.175 ± 0.14
17 | AUUUAGCAAUAUUACGGUUC | -4.68 ± 0.51 | 
18 | UAAUAGCAAUAUUACGAAAC | -5.21 ± 1 | -2.52 ± 1.1
19 | UGCUAGCAAUAUUACGAGCA | -3.92 ± 0.6 | 
20 | GGGGAGCAAUAUUACGGAGU |  | -1.38 ± 0.87
21 | AUGGAGCAAUAUUACGCCAC |  | -0.964 ± 0.78
22 | CAUGAGCAAUAUUACGAGUU | -4.84 ± 0.51 | 
23 | CCGUAGCAAUAUUACGCCCG | -0.871 ± 0.15 | -0.0634 ± 0.21

Fetched one by one from above, 2 records:
Row | Sequence | self-splicing fitness (ln) (30 °C) | self-splicing fitness (ln) (37 °C)
17 | AUUUAGCAAUAUUACGGUUC | -4.68 ± 0.51 | 
19 | UGCUAGCAAUAUUACGAGCA | -3.92 ± 0.6 | 

(next part)

Row | Sequence | self-splicing fitness (ln) (30 °C) | self-splicing fitness (ln) (37 °C)
24 | GCCCAGCAAUAUUACGGAGC | -4.06 ± 0.39 | -2.17 ± 0.34
25 | UUCAAGCAAUAUUACGGAAC |  | -1.36 ± 0.5
26 | AGGGAGCAAUAUUACGACGA | -3.62 ± 0.55 | -1.5 ± 0.53
27 | AUGAAGCAAUAUUACGUCCU | -0.113 ± 0.093 | 0.0551 ± 0.11
28 | AAAGAGCAAUAUUACGCAGA | -1.5 ± 0.51 | -2.17 ± 0.56
29 | GUGCAGCAAUAUUACGCUAC | -3.08 ± 0.74 | -3.19 ± 0.6
30 | UCAUAGCAAUAUUACGUUCC | -4.8 ± 1 | 
31 | GGAGAGCAAUAUUACGGGUG | -2.47 ± 0.59 | -2.45 ± 0.54
32 | GGCGAGCAAUAUUACGGGGU |  | -3.55 ± 1
33 | GUAUAGCAAUAUUACGAGCC | -2.29 ± 0.56 | -0.693 ± 1.4
34 | UGGCAGCAAUAUUACGCUCC |  | -2.9 ± 1.1
35 | GCGGAGCAAUAUUACGUACA | -2.35 ± 0.6 | -2.18 ± 0.64
36 | CUACAGCAAUAUUACGACAC | -3.63 ± 0.6 | -1.91 ± 0.56
37 | GCAAAGCAAUAUUACGCUUG | -3.98 ± 0.18 | -2.64 ± 0.18
38 | AUUGAGCAAUAUUACGUUAC | -4.23 ± 1 | 
39 | CUACAGCAAUAUUACGUUCC |  | -3.57 ± 0.59
40 | GCAUAGCAAUAUUACGUCGA | -1.63 ± 0.15 | -0.979 ± 0.15
41 | AGCGAGCAAUAUUACGCAAU | -3.03 ± 0.75 | -2.3 ± 0.77
42 | AGUCAGCAAUAUUACGCCGG |  | -0.834 ± 0.67
43 | AUGCAGCAAUAUUACGGAGC | -2.6 ± 0.15 | -2.99 ± 0.18
44 | GCCGAGCAAUAUUACGUUCG | -2.72 ± 0.26 | -2 ± 0.34
45 | CCGUAGCAAUAUUACGAGGC | -3.26 ± 0.74 | -2.78 ± 0.62
